This is an account of results in article PMC9843824 (Neuropharmacology, 2022).

Data set [1] in a line: in vitro. The following applies: rat, plasma. It is filed as in vitro ADME.
A short description of data set [2]: physchem. It counts as physicochemical.
For data set [3] the following is noted: rat, in vivo; cited from earlier work.

Turning to `Nc1nc2ccc(OC(F)(F)F)cc2s1` [Riluzole, reference compound], the free fraction (fraction unbound) in data set [1] was 0.02. The logP in data set [2] is 3.95. The “Brain:plasma ratio” value in data set [3] is listed as 1.
